Results taken from the supplement of paper PMC3334620.
The full ranking holds about 33,000 sequences; the median of “E-score (-0.5 to 0.5)” is about -0.016, and the highest 2% start at about 0.3. The list shows a part of the results.

Target: T1, Yer184c (UniProt P39961)
T1 sequence: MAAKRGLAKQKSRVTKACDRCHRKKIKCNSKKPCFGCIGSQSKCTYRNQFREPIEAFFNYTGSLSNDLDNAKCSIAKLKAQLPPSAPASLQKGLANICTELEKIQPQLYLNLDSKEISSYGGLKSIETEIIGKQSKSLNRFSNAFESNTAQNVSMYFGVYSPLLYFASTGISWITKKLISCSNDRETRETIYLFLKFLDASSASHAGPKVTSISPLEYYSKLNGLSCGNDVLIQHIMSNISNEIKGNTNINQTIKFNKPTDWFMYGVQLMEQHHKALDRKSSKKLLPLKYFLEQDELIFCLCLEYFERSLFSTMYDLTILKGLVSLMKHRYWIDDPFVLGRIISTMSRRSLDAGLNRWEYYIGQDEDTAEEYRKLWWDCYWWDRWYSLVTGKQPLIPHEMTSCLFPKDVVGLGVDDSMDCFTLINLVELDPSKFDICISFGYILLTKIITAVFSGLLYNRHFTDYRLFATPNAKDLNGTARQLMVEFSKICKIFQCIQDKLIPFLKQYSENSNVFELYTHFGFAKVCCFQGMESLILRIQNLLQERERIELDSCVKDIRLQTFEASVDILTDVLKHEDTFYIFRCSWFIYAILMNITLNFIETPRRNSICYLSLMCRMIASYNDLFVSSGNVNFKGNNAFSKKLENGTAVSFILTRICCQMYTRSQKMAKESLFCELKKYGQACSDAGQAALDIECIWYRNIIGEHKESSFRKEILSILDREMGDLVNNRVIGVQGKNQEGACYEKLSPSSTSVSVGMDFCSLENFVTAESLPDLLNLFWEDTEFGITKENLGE
Assay: PBM E-score (8-mer binding enrichment) (E-score (-0.5 to 0.5)); higher = stronger / more preferred TF binding
Settings: protein concentration: 100 nM; construct: GST-full length
Procedure, shortened: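 PURExpress in vitro transcription/translation supplied GST-tagged yeast transcription factors, either full-length or DNA-binding domain. Applied at about 100-200 nM to universal all-10-mer Agilent arrays double-stranded by primer extension, the bound protein was detected with fluorescent anti-GST. E-scores, modified Wilcoxon-Mann-Whitney statistics, were given by the Universal PBM Analysis Suite to ungapped eight-base words pooled with their reverse complements after masliner normalisation.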

Sequence	PBM E-score
GTTATGAA	0.119
CAATTGAA	-0.135
CGCTGAAG	-0.0407
ACCTACCG	-0.0673
AACTCCTT	-0.0293
GAGTCATC	-0.131
CTGGATGC	-0.204
CCCACACA	-0.213
ACGACCTG	-0.256
TAAGCCGA	0.369
AAGTGAGC	-0.00465
GGGGATGA	-0.264
GTAAGCTA	0.0243
ACTTCTGA	-0.174
CAAACAAC	0.274
ATAAACCC	0.0901
ACTACCTC	-0.0352
CCTGATGA	0.0301
GACAACGC	0.0521
AAGAATCG	0.168
ACTTCGTA	0.0175
AGCGTCAG	-0.234
ACTTACCC	-0.0502
AAGCTAAA	-0.0461
CAGTTGCG	0.0601

Sequence	PBM E-score
ACAGTTTG	-0.11
CGGTCACC	0.076
ATTTTGAG	0.143
AGCGGGCA	-0.202
ACTGTACG	-0.218
CAAATGGA	0.0465
CAAGCCAG	-0.22
AGCCTATC	-0.11
CCGTACAA	0.125
CGAGCCAG	0.145
ACACTGGT	-0.258
ATAACGTG	-0.139
AATCCACC	-0.157
CACTAGCC	0.125
ATGTGCAA	-0.0551
ATATGAAG	-0.0732
CACAAAAA	0.223
AAAGTTAG	0.154
ATGTCGCC	-0.197
GCTGGTTA	0.0291
CATACCAG	-0.15
AACAGCTC	0.0147
GCGCCCCA	-0.12
AGGAAATG	0.0726
TAAGTAAA	0.0677

Sequence	PBM E-score
AACCGCCT	0.0736
ACGATTAT	0.0164
AGCAGGTG	-0.0507
CAAAGAAA	0.178
GACTGACA	0.058
GACTCTCC	-0.118
AAATCCGT	0.181
ATTCGGTG	0.155
AGAGTCCA	-0.161
AAGCTACT	0.00012
CTACCGGC	0.0792
ACCTTGCG	-0.0337
GCTCCATA	-0.155
CGTGCTCC	0.079
ATTATCGG	0.224
GGGAGTCA	-0.168
ACCCCGGG	0.263
GACAGAAC	-0.00544
CTGCAAGA	-0.0068
ATAACCAT	-0.13
ACCCCATG	-0.12
AAGACCGA	0.228
AGCGCTAT	0.0285
CGTTCTGA	-0.0441
GCAGTTCA	-0.0795

Sequence	PBM E-score
AGAACTCG	0.0462
CAGGTTTC	-0.0188
CCGGGTTA	0.25
AGTCACGA	-0.0213
CGTTACTA	-0.0021
CCGGAGGC	0.139
CTCTCACA	-0.0505
GTGTGCCA	-0.11
CTGTGAGA	-0.0755
AAGCGCTC	0.0112
ATTCCTAC	-0.119
ATTATCCG	0.36
AAGTCAAT	-0.00529
AGTATTTG	-0.0716
GATGACGC	-0.219
AGAGCAAC	-0.0202
CGCATGGC	-0.0253
GAAAGACA	0.0427
CGGCAATC	0.291
CTCATTCC	0.0371
ACATACCA	-0.12
GGTCGGGA	0.0925
ATTGCGGG	0.0878
AACGTTAT	0.00561
CCGGATCG	0.352

Sequence	PBM E-score
ACGTAACT	-0.229
TAATTGCA	0.125
GTCTTGTA	-0.118
ATCTGGCC	-0.166
ATACCGCC	0.102
GTCTAGAC	-0.31
CCTCCCAC	-0.166
TAATGGTA	0.0249
TAGTAACA	0.167
AAATTGTA	0.154
CCCCAAGA	-0.15
ACGAGTTA	0.0904
GCAGCTTA	-0.0551
CGCTATTC	0.12
ATTGTATG	0.0232
AATGCCTC	-0.22
CAGCCGTC	0.151
TCAAACGA	0.116
GACATATA	0.219
AGGCCCCT	-0.392
CATTTTAC	0.109
ATTCATTC	0.127
TACTGCGA	-0.129
CACGGACA	0.228
GAGACTTA	-0.0781

Sequence	PBM E-score
AGACATCC	-0.103
AGCCATAA	-0.0029
CTCCATGA	0.00856
AAGCGTAA	-0.0217
CTTATGCA	0.0296
GTAAGTAC	0.0583
AGGTTCTC	-0.0203
CTTCGGCA	0.333
ACCAAATC	-0.0394
AGATTACC	0.0667
CCACCCAC	-0.126
AGTGAGGC	-0.0996
GCCTGCTA	-0.0406
AGCACGAA	0.176
ACTCTTCC	0.0111
CGATGGAA	0.0585
AACACTGG	-0.0633
ATTCATCA	-0.0169
ACAGCCAG	0.00409
GAAGACCA	0.0223
ATAAGAGC	0.055
GAGTAGAA	-0.00024
ACGCGGCC	-0.0466
CGGAAGGC	0.0723
AGGTAGTA	-0.00581

An excerpt of these results, field by field:
CTCCATGA
  PBM E-score: 0.00856
AAGCGTAA
  PBM E-score: -0.0217
CTTATGCA
  PBM E-score: 0.0296

The results go on:

Sequence	PBM E-score
CAGCCCGA	-0.16
ACGCAGCG	-0.153
GTATGTCA	0.00836
GAGCAGCC	-0.136
CCTGCTAA	-0.119
GCGCACCA	-0.0536
AGCCGTAA	0.285
TCTAAACA	0.0276
AAGAGGAT	-0.266
ACAAGATC	0.119
CTATGCAG	-0.0128
AAAATTGT	0.201
AGGAACAC	0.161
ATGCGACG	-0.12
AGTCATTC	-0.0943
CTTACGAA	0.0913
GAGGGCAA	-0.0172
TACTGGCA	-0.149
CACCTAGA	-0.251
TACTCGGA	0.287
AACCTACA	0.142
CCCGGGAG	0.253
CAGTACAC	0.00699
CTACATCC	0.00687
CATAAGTC	-0.0307

Sequence	PBM E-score
AATAGTGC	0.122
GGACGTCC	-0.063
CCCCAACC	-0.231
GACGTGCC	-0.235
TCCCTGCA	-0.138
ATGGCCTA	-0.203
AGGGGGTC	-0.39
GTTGAGAA	0.0483
ATTAACGG	0.23
ACTGCTCT	-0.114
GTACTGCA	0.0335
GTGTCAGA	0.125
GACCAATC	0.00517
AGCGGTGA	-0.0103
AGTAATAA	0.105
ACTAAGAG	-0.14
AGGCCGTA	0.178
CGCATGCA	0.116
AGAAAGAC	-0.132
GAAATGCC	0.067
GATTTCGA	0.042
CAGAACAG	-0.127
CATTGGGG	-0.304
CAGGGTTC	-0.1
ATCCATTC	0.16

Sequence	PBM E-score
AAAGCGAA	0.0331
AGTCTAGG	-0.144
AGGGGCAA	-0.244
AAGTGATG	-0.07
AGTGTTGA	0.0919
GTAAGACA	0.0606
TATTTAAA	0.218
AATTGCAC	0.0043
AGTTCCAA	0.122
GGTATTAC	0.233
GGGACCGA	0.158
CGTACTGC	-0.122
AATACCCA	0.0211
AAACAAGG	-0.096
ACTTCTCG	0.17
AACTCGTC	-0.0807
GGATTCGA	-0.0994
AAGTTGAG	0.0313
AAGACTGT	-0.0493
CAGGTCGA	-0.00477
ACGAAACC	0.219
GCACCGAA	0.174
AATTCGAG	-0.108
CCATTTAA	0.206
AGAAAAAA	0.203

Sequence	PBM E-score
ATCCTTGG	0.017
CACTCAGC	-0.0362
CAGGGGGC	-0.284
AGCGGTAG	-0.141
GCCCGCGA	-0.00435
GTCCTGGA	-0.241
AAAATCGG	0.15
ACCTGTAT	-0.169
CCGCGTTC	0.147
GACGATGA	0.0507
CGCGATGC	-0.146
CTTCTCCA	-0.106
CATATCGG	0.0288
AGTTCCCA	0.0448
AGGGTCCG	0.00576
ACAGGTGA	-0.193
CAGGACGC	-0.0689
TGTGTCAA	-0.115
CAAATATA	0.0999
GTTTGAGA	-0.169
CAGTACCG	0.0817
TAAGCAAA	-0.0338
GCAACGGA	0.294
GAAAAATC	0.162
GACGTTTA	-0.00627

Sequence	PBM E-score
CTGTCTAC	-0.0237
AGGATGTA	-0.114
ACTGGCCG	-0.118
ATAGAAGC	0.171
CGTAGAAC	0.0148
AACTCACC	-0.101
ACAATCTC	-0.06
GGCCCCCA	-0.3
ACGACCCC	-0.136
CTACTAGC	0.143
ACAACAGT	-0.0303
AACGGCAT	0.247
CAGATGAC	-0.263
ACTCAAAC	0.158
GACTTACC	-0.0786
CTCAGCGC	-0.0245
AACAATTG	-0.0709
GGGGGGTA	-0.265
CGCACAAC	-0.12
TCTTCACA	0.0179
ATCTCCGA	0.36
ATGAAGCC	0.287
GTGATATA	-0.153
CACCTAGC	-0.187
ACTGAGTC	-0.00384

Sequence	PBM E-score
GGCCGCGA	-0.0617
AGGAATTG	-0.0124
ATCCCGGG	0.36
CCGAGTAG	0.177
CAGCTGAA	-0.00121
GATGCTGA	-0.203
ACGGAAAG	0.231
GACGCTAC	-0.0102
CTATACCC	-0.085
CTTACCAA	0.103
TGTCACAA	0.257
ACTAACCT	0.0571
CGGACGAG	0.185
GTACCGCA	0.226
AATGAATA	-0.0133
CCAACACG	-0.0252
GCCTGTCC	-0.0809
GGGTTTTA	-0.0731
ACGCCCGG	0.266
CGGGGCTA	-0.119
AAGTCTTG	0.0186
CTTTACTC	-0.0421
AGTACCCA	-0.253
CTGCTCCC	-0.116
TCCTTAAA	-0.0526

Some of the entries so far, as labelled records.
GGACGTCC
  PBM E-score: -0.063
CCCCAACC
  PBM E-score: -0.231
GACGTGCC
  PBM E-score: -0.235

Next part.

Sequence	PBM E-score
ATAAAGTA	0.227
AAAAGCTA	-0.00714
CACCCTCA	-0.268
GATCAACA	0.0638
CGTGAGAC	-0.0524
AAACCTGG	-0.147
CACGAGCA	-0.133
TCCGCAGA	-0.0109
ATCCGCGC	0.141
AATCTCGG	0.263
CATACATG	-0.058
CTCCAAGC	-0.181
GGGCGCGA	0.0674
AGAGGAAG	-0.0422
CAGCCTCC	-0.248
ATGTTACG	-0.021
ACTCGCAA	0.0905
CCCTCAGC	-0.0999
AAATCACG	0.155
CCCGCGGC	0.35
GGCCTCAA	0.0126
AGCCCCGG	0.131
ATTAAAAT	0.265
TAATAAGA	0.199
CTTATTCA	-0.132

Sequence	PBM E-score
CGGGACTC	0.0381
ATCCCTGG	-0.121
AGAAATAT	0.152
CGTCGAGA	0.0489
AATAACTA	0.00633
CGGAGTAA	0.313
GACGTGGC	-0.302
AAACACGC	0.014
CAAGTAGG	-0.157
GACCTCTA	-0.0248
GACGATCA	-0.144
ACGTCGCG	0.0799
GTCATAAA	0.137
GCTTTGGA	0.13
AACATCGC	-0.158
AATTGGAT	0.0921
CAACTCCA	-0.139
ATGCAAGA	0.0225
ACCAGGCG	-0.0635
